Article PMC5118688 (Scientific Reports, 2016)

Experiments:
mAb3C9 = experiment: competitive phage-ELISA of mimotopes against parathion-methyl; format: binding, mouse; conditions: mimotope as labelled
[1] = spike-recovery study by mimotope-based dcELISA; conditions: n=3
[2] = spike-recovery study by chemosynthesized antigen-based dcELISA; conditions: n=3

C R G S M P F W C (CRGSMPFWC) [Hapten M32, phage-display peptide mimotope of mAb3C9]
Amax (mAb3C9): 1.38

C T G T T P F Y C (CTGTTPFYC) [Hapten M20, phage-display peptide mimotope of mAb3C9, used for further study]
Amax (mAb3C9): 1.64

C M A R Y M S A C (CMARYMSAC) [Hapten M39, phage-display peptide mimotope of mAb3C9]
Amax (mAb3C9): 1.59

COP(=S)(OC)SCn1nnc2ccccc2c1=O [Azinphos-methyl]
R (%) average recovery ([1]; apple, spiked 5 ng/g): 92.4%
R (%) average recovery ([1]; apple, spiked 10 ng/g): 102.5%
R (%) average recovery ([1]; cabbage, spiked 5 ng/g): 93.9%
R (%) average recovery ([1]; cabbage, spiked 10 ng/g): 97.8%
R (%) average recovery ([1]; cucumber, spiked 5 ng/g): 101.7%
R (%) average recovery ([1]; cucumber, spiked 10 ng/g): 108.5%
R (%) average recovery ([2]; apple, spiked 5 ng/g): 95.6%
R (%) average recovery ([2]; apple, spiked 10 ng/g): 102.5%
R (%) average recovery ([2]; cabbage, spiked 5 ng/g): 93.9%
R (%) average recovery ([2]; cabbage, spiked 10 ng/g): 97.8%
R (%) average recovery ([2]; cucumber, spiked 5 ng/g): 101.7%
R (%) average recovery ([2]; cucumber, spiked 10 ng/g): 108.5%

C L G T T P F F C (CLGTTPFFC) [Hapten M4, phage-display peptide mimotope of mAb3C9]
Amax (mAb3C9): 1.52

COP(=S)(OC)Oc1ccc([N+](=O)[O-])cc1 [Parathion-methyl]
R (%) average recovery ([1]; apple, spiked 10 ng/g): 93.3%
R (%) average recovery ([1]; apple, spiked 20 ng/g): 108.2%
R (%) average recovery ([1]; cabbage, spiked 10 ng/g): 121.5%
R (%) average recovery ([1]; cabbage, spiked 20 ng/g): 101.7%
R (%) average recovery ([1]; cucumber, spiked 10 ng/g): 106.2%
R (%) average recovery ([1]; cucumber, spiked 20 ng/g): 101.3%
R (%) average recovery ([2]; apple, spiked 10 ng/g): 90.3%
R (%) average recovery ([2]; apple, spiked 20 ng/g): 108.2%
R (%) average recovery ([2]; cabbage, spiked 10 ng/g): 112.8%
R (%) average recovery ([2]; cabbage, spiked 20 ng/g): 101.7%
R (%) average recovery ([2]; cucumber, spiked 10 ng/g): 106.2%
R (%) average recovery ([2]; cucumber, spiked 20 ng/g): 101.3%

C L Y H P W N N C (CLYHPWNNC) [Hapten M3, phage-display peptide mimotope of mAb3C9]
Amax (mAb3C9): 1.41

COP(=S)(OC)Oc1ccc([N+](=O)[O-])c(C)c1 [Fenitrothion]
R (%) average recovery ([1]; apple, spiked 10 ng/g): 97.7%
R (%) average recovery ([1]; apple, spiked 20 ng/g): 94.8%
R (%) average recovery ([1]; cabbage, spiked 10 ng/g): 101.2%
R (%) average recovery ([1]; cabbage, spiked 20 ng/g): 98.2%
R (%) average recovery ([1]; cucumber, spiked 10 ng/g): 101.8%
R (%) average recovery ([1]; cucumber, spiked 20 ng/g): 94.7%
R (%) average recovery ([2]; apple, spiked 10 ng/g): 97.7%
R (%) average recovery ([2]; apple, spiked 20 ng/g): 91.8%
R (%) average recovery ([2]; cabbage, spiked 10 ng/g): 101.2%
R (%) average recovery ([2]; cabbage, spiked 20 ng/g): 98.2%
R (%) average recovery ([2]; cucumber, spiked 10 ng/g): 101.8%
R (%) average recovery ([2]; cucumber, spiked 20 ng/g): 94.7%
